Reference: the supplement of paper PMC7238544
Counter-ions that a name gives are not always drawn. ± gives the standard deviation of the averaged measurements. The list shows a part of the results. The data scatter; read single values as rough.

What was measured:
hAMSC donor 1 [1] = assay: Hoechst total cell count ratio vs vehicle control; higher = more cells (less toxicity)
hAMSC donor 2 [2] = assay: as above
hAMSC donor 1 [3] = assay: transgenic luciferase activity (RLU/mg protein) fold change vs vehicle control (ratio); higher = more transgene expression
hAMSC donor 2 [4] = assay: as above
hAMSC donor 1 [5] = assay: transfection efficiency (EGFP+ cells / Hoechst count) fold change vs vehicle control (ratio); hAMSC are human adipose-derived mesenchymal stem cells given an EGFP-luciferase plasmid by lipofection; higher = enhanced transfection
hAMSC donor 2 [6] = assay: as above
[7] = priming compound concentration 0.2 µM
[8] = priming compound concentration 1.7 µM
[9] = priming compound concentration 13 µM

Structure (SMILES)	Hoechst total cell count ratio (hAMSC donor 1 [1]; [7])	Hoechst total cell count ratio (hAMSC donor 1 [1]; [8])	Hoechst total cell count ratio (hAMSC donor 1 [1]; [9])	Hoechst total cell count ratio (hAMSC donor 2 [2]; [7])	Hoechst total cell count ratio (hAMSC donor 2 [2]; [8])	Hoechst total cell count ratio (hAMSC donor 2 [2]; [9])	transgenic luciferase activity (hAMSC donor 1 [3]; [7])	transgenic luciferase activity (hAMSC donor 1 [3]; [8])	transgenic luciferase activity (hAMSC donor 2 [4]; [7])	transgenic luciferase activity (hAMSC donor 2 [4]; [8])	transgenic luciferase activity (hAMSC donor 2 [4]; [9])	transfection efficiency (hAMSC donor 1 [5]; [7])	transfection efficiency (hAMSC donor 1 [5]; [8])	transfection efficiency (hAMSC donor 1 [5]; [9])	transfection efficiency (hAMSC donor 2 [6]; [7])	transfection efficiency (hAMSC donor 2 [6]; [8])	transfection efficiency (hAMSC donor 2 [6]; [9])	transgenic luciferase activity (hAMSC donor 1 [3]; [9])
COc1cc(C(=O)NC2CCCNC2)cc(OC)c1OC (stereo not drawn) [Troxipide]	1.38 ± 0.27	1.36 ± 0.029	1.2 ± 0.16	1.11 ± 0.075	1.3 ± 0.038	0.991 ± 0.16	0.7 ± 0.29	1.7 ± 0.46	0.811 ± 0.091	0.756 ± 0.0098	0.719 ± 0.23	1.3 ± 0.49	0.713 ± 0.093	1.04 ± 0.2	1.25 ± 0.099	0.934 ± 0.038	1.49 ± 0.069	–
Cc1cccc(Nc2ccncc2S(=O)(=O)NC(=O)NC(C)C)c1 [Torasemide]	1.02 ± 0.036	1.02 ± 0.11	1.3 ± 0.068	1.08 ± 0.23	1.08 ± 0.11	1.27 ± 0.2	0.591 ± 0.13	1.05 ± 0.66	0.505 ± 0.33	1.1 ± 0.033	0.573 ± 0.26	1.57 ± 0.4	1.63 ± 0.15	1.2 ± 0.33	1.05 ± 0.12	1.14 ± 0.058	1.13 ± 0.22	–
CC1(C)O[C@@H]2C[C@H]3[C@@H]4CCC5=CC(=O)C=C[C@]5(C)[C@@]4(F)[C@@H](O)C[C@]3(C)[C@]2(C(=O)CO)O1 [Triamcinolone acetonide]	1.56 ± 0.17	1.25 ± 0.092	1.56 ± 0.077	1.03 ± 0.098	0.853 ± 0.058	1.11 ± 0.24	–	11.7 ± 2.2	5.49 ± 1.3	5.46 ± 0.33	4.77 ± 0.84	1.68 ± 0.45	3.06 ± 0.65	1.91 ± 0.37	1.67 ± 0.21	2.42 ± 0.27	1.87 ± 0.12	7.49 ± 1.3
Nc1nc(N)c2nc(-c3ccccc3)c(N)nc2n1 [Triamterene]	1.08 ± 0.088	1.26 ± 0.071	1.1 ± 0.15	1.2 ± 0.15	1.04 ± 0.19	1.25 ± 0.16	0.823 ± 0.034	1.56 ± 1.3	0.908 ± 0.28	0.995 ± 0.043	0.844 ± 0.26	1.48 ± 0.38	1.15 ± 0.24	0.927 ± 0.43	0.836 ± 0.028	1.17 ± 0.17	1.05 ± 0.24	–
COc1ccccc1OCC(O)COC(N)=O (stereo not drawn) [Methocarbamol]	1.35 ± 0.38	1.08 ± 0.035	1.48 ± 0.22	1.12 ± 0.053	1.15 ± 0.022	1.44 ± 0.14	–	0.845 ± 0.1	1.01 ± 0.15	0.521 ± 0.12	0.519 ± 0.051	1.03 ± 0.29	1.34 ± 0.3	0.903 ± 0.15	0.755 ± 0.084	1.06 ± 0.12	0.824 ± 0.033	0.357 ± 0.061
COc1ccc(OC)c(C(O)CNC(=O)CN)c1 (stereo not drawn) [Midodrine hydrochloride]	1.19 ± 0.12	1.09 ± 0.056	1.47 ± 0.15	1.22 ± 0.091	1.09 ± 0.021	1.58 ± 0.35	–	0.747 ± 0.23	0.859 ± 0.044	0.48 ± 0.049	0.357 ± 0.15	0.926 ± 0.33	1.1 ± 0.14	0.951 ± 0.12	0.807 ± 0.069	1.13 ± 0.095	0.882 ± 0.18	0.291 ± 0.098
O=c1cnn([C@@H]2O[C@H](CO)[C@@H](O)[C@H]2O)c(=O)[nH]1 [6-Azauridine]	1.09 ± 0.11	1.25 ± 0.14	0.927 ± 0.13	1.21 ± 0.17	1.09 ± 0.082	1.33 ± 0.15	0.533 ± 0.082	0.724 ± 0.31	0.766 ± 0.15	0.944 ± 0.17	0.819 ± 0.24	1.48 ± 0.87	2.11 ± 0.76	1.33 ± 0.59	1 ± 0.21	1.2 ± 0.081	1.08 ± 0.13	–
CN(C)c1nc(N(C)C)nc(N(C)C)n1 [Altretamine]	1.22 ± 0.2	1.09 ± 0.16	1.34 ± 0.38	1.15 ± 0.081	1.26 ± 0.064	1.42 ± 0.074	–	0.83 ± 0.11	0.66 ± 0.1	0.602 ± 0.096	0.581 ± 0.14	0.781 ± 0.093	1.22 ± 0.25	0.954 ± 0.41	0.916 ± 0.039	1.03 ± 0.2	0.739 ± 0.072	0.504 ± 0.055
CCc1cccc2c3c([nH]c12)C(CC)(CC(=O)O)OCC3 (stereo not drawn) [Etodolac]	0.983 ± 0.16	1.21 ± 0.048	1.12 ± 0.067	1.21 ± 0.11	1.05 ± 0.097	0.947 ± 0.07	–	0.211 ± 0.079	0.981 ± 0.34	1.03 ± 0.095	0.531 ± 0.12	1.02 ± 0.39	1.11 ± 0.64	0.538 ± 0.28	0.802 ± 0.088	1.18 ± 0.2	0.904 ± 0.11	0.901 ± 0.047
CC1(C)S[C@@H]2[C@H](NC(=O)Cc3ccccc3)C(=O)N2[C@H]1C(=O)O [Penicillin G potassium]	1.49 ± 0.14	1.14 ± 0.16	1.49 ± 0.21	1.15 ± 0.018	1.18 ± 0.11	1.12 ± 0.18	–	0.626 ± 0.032	0.978 ± 0.21	0.571 ± 0.1	0.505 ± 0.062	0.777 ± 0.18	1.21 ± 0.38	1.29 ± 0.18	0.985 ± 0.076	1.22 ± 0.18	0.925 ± 0.17	0.604 ± 0.33
CCN(CC)CCNC(=O)c1ccc(N)cc1 [Procainamide hydrochloride]	1.4 ± 0.19	1.15 ± 0.11	1.25 ± 0.14	1.11 ± 0.013	1.15 ± 0.032	1.46 ± 0.2	0.612 ± 0.11	2.18 ± 0.43	0.995 ± 0.061	0.899 ± 0.1	1.33 ± 0.083	1.01 ± 0.028	0.861 ± 0.25	1.29 ± 0.13	1.38 ± 0.15	1.3 ± 0.17	1.02 ± 0.13	–
C[C@H](CCC(=O)O)[C@H]1CC[C@H]2[C@@H]3C(=O)C[C@@H]4CC(=O)CC[C@]4(C)[C@H]3CC(=O)[C@]12C [Dehydrocholic acid]	1.18 ± 0.12	1.08 ± 0.035	1.33 ± 0.061	0.837 ± 0.22	1.24 ± 0.39	1.2 ± 0.23	0.516 ± 0.044	1.13 ± 0.47	1.13 ± 0.41	1.17 ± 0.53	0.844 ± 0.3	1.23 ± 0.41	1.58 ± 0.13	0.98 ± 0.086	1.19 ± 0.29	0.966 ± 0.33	1.05 ± 0.08	–
CCCC(CCC)C(=O)O [Valproic acid]	1.41 ± 0.31	1.12 ± 0.028	1.36 ± 0.17	1.25 ± 0.2	1.101 ± 0.0068	1.26 ± 0.18	–	1.81 ± 0.84	0.734 ± 0.034	0.756 ± 0.26	0.599 ± 0.24	1.12 ± 0.37	1.46 ± 0.36	1.3 ± 0.51	0.743 ± 0.05	1.09 ± 0.19	0.967 ± 0.073	0.564 ± 0.18
Cc1ccnc2c1NC(=O)c1cccnc1N2C1CC1 [Nevirapine]	1.34 ± 0.089	1.16 ± 0.16	1.29 ± 0.28	1.31 ± 0.11	1.05 ± 0.032	1.3 ± 0.17	–	1.16 ± 0.083	0.392 ± 0.16	0.705 ± 0.032	0.926 ± 0.23	0.984 ± 0.27	1.35 ± 0.22	1.53 ± 0.39	0.834 ± 0.055	0.942 ± 0.068	1.28 ± 0.059	1.06 ± 0.25

As entered above.
Entry for Cc1cccc(Nc2ccncc2S(=O)(=O)NC(=O)NC(C)C)c1 [Torasemide] under transfection efficiency (hAMSC donor 2 [6]; [8]): 1.14 ± 0.058
Entry for C[C@H](CCC(=O)O)[C@H]1CC[C@H]2[C@@H]3C(=O)C[C@@H]4CC(=O)CC[C@]4(C)[C@H]3CC(=O)[C@]12C [Dehydrocholic acid] under transfection efficiency (hAMSC donor 2 [6]; [9]): 1.05 ± 0.08
